In this assay the target is PHF21A canonical isoform (PHF21A-c), mouse (mouse (endogenous in MEF and in Phf21a Δn/Δn cortex)) (UniProt Q6ZPK0). Description: co-IP; anti-PHF21A antibody crosslinked to Protein A/G beads, control rabbit IgG; nuclear extracts (0.6 M KCl extraction) of LUHMES cells (day 0, day 3), 293T cells, MEFs, cortical neurons (DIV7) or P0 mouse cortices; 3 h at 4 °C; Western blot. Background: A western blot detects proteins with antibodies after separation by electrophoresis.

Sequences of proteins named here, by UniProt entry; tags and fusion partners are left off. A change or cut given only in a name is not applied to a line headed by its entry.
UniProt Q6ZPK0: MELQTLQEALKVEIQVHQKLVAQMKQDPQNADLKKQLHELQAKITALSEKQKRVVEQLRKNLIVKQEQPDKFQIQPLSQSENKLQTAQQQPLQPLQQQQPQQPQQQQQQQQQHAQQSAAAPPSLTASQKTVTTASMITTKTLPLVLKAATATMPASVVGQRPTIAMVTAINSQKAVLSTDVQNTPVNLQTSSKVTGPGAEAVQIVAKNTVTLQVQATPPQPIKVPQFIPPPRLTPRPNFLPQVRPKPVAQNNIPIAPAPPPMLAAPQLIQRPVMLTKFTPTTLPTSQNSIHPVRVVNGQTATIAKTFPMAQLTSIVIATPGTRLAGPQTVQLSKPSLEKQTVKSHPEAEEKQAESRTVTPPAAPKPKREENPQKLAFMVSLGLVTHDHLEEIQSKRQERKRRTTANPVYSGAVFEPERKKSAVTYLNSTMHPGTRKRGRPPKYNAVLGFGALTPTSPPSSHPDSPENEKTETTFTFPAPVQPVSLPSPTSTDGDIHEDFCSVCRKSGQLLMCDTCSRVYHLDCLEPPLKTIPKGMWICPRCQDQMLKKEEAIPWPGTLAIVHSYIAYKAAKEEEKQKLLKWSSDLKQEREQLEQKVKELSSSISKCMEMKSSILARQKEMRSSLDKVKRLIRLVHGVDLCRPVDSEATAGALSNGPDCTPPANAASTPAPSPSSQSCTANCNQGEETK

No constants are given. Whether binding was seen depends on the method and setting. In cells and extracts the contact can be indirect. Some results given as binding are weak or reduced against the parent protein; the word gives no strength.

B1: HMG20B (BRAF35), mouse (protein, UniProt Q9Z104 1-317)
chain: MSHGPRQPGAATAPAGGKTPGQHGAFVVAVKQERSEGSRAGEKGPQEEEPVKKRGWPKGKKRKKILPNGPKAPVTGYVRFLNERREQIRTRHPDLPFPEITKMLGAEWSKLQPAEKQRYLDEAEKEKQQYLKELWAYQQSEAYKVCTEKIQENKIKKEDSSSGLMNTLLNGHKGVDCDGFSTFDVPIFTEEFLDQNKAREAELRRLRKMNVAFEEQNAVLQRHTQSMSSARERLEQELALEERRTLALQQQLQAVRQALTASFASLPVPGTGETPTLGTLDFYMARLHGAIERDPAQHERLIARVKEILARVASEHL
For the molecule B1, the binding entry is “binds”.

The record behind these values is paper PMC11605454.
